Test results taken from PubChem BioAssay AID540256 (National Center for Advancing Translational Sciences (NCATS), 2011).
Several values for one entry are separate records, joined by “and”; a condition that tells them apart may be missing. Equal entries are not always repeated. The whole screen tested about 300,000 compounds, of which about 3,700 (1.2%) were called active. The inconclusive results got no clear call from the source; some entries with a clear call stand among them for comparison. The call rests on the fitted dose curve; tested in HEK293 cells. A potency beside an inconclusive call is a rough fit, not a confirmed value.

Test: qHTS for Inhibitors of binding or entry into cells for Lassa Virus; further: nearly all actives have a fitted effect of over 50% in size
Details: Lassa virus pseudotype entry inhibition, cell reporter; activity change, negative = inhibition: at 37.9 µM (top of the series) unless noted
On the % scale 0 is the no-effect control and ±100 the full control effect; potency means the concentration at half of the fitted maximal effect.

Structure (SMILES) | activity change, negative = inhibition | Potency
Cc1ccc(C2C(C(=O)c3cccs3)=C(O)C(=O)N2c2nnc(C)s2)cc1 (centres undefined) | inactive: 21.2% | 
CSc1nc(-c2ccccc2)cn1-c1ccc(NC(C)=O)cc1 |  | inconclusive: 3.98 µM [inhibitor, full curve, poor fit]
COc1ccc(-c2nnc(SCC(=O)NCCC(C)C)nc2-c2ccc(OC)c(OC)c2)cc1OC |  | inconclusive: 6.31 µM [inhibitor, partial curve, poor fit]
OC12CCCCC1C(c1ccccc1)NCC2 (centres undefined) | inactive: 3.07% | 
O=C(CCCC(=O)N(CC(=O)NC1CCCC1)Cc1ccccc1Cl)Nc1ccccn1 |  | inconclusive: 35.5 µM [activator, partial curve, poor fit]
Cc1csc(NC(=O)c2cn3ccccc3n2)n1 |  | active: 3.98 µM
C=CCOC(=O)C1=C(C)NC(C)=C(C(=O)OCC=C)C1c1ccc(C)o1 | inactive: -11% | 
Cc1cc(C)c2c(N)c(C(=O)Nc3nccs3)sc2n1 |  | inconclusive: 20.6 µM [inhibitor, single point]
CCOC(=O)CC1(c2ccc(OC)c(OC)c2)C(=O)c2ccccc2C1=O |  | inconclusive: 22.4 µM [inhibitor, partial curve, poor fit]
Cc1ccc2nc(N(CCN(C)C)C(=O)c3ccc4c(c3)OCCO4)sc2c1 | inactive: 1.2% [at 46.1 µM] | 
CCOC(=O)CSc1nc(C)c(CC)c(C)c1C(N)=O |  | inconclusive: 6.31 µM [inhibitor, single point]
CCCOc1ccc(/C=C/C(=O)NCc2ccccc2)cc1 |  | inconclusive: 32.6 µM [inhibitor, partial curve, poor fit]
CC(C)(C)c1ccc(C(=O)NCCc2csc(-c3ccc(Cl)cc3)n2)cc1 | inactive: -1.65% [at 46.1 µM] | 
O=C(Nc1ccc(Cl)cc1F)C1CC1 | inactive: 3.72% | 
CC(=O)OC1COC(N2CCc3ccccc32)C(OC(C)=O)C1OC(C)=O (centres undefined) |  | inconclusive: 1.12 µM [activator, single point]
COc1ccccc1C(=O)N/N=C/c1cnc2ccccc2n1 |  | inconclusive: 10 µM [activator, single point]
COc1cc(C(=O)NCCOc2ccccc2)cc(OC)c1OC | inactive: 14.1% | 
O=C(CCNC(=O)c1ccc([N+](=O)[O-])cc1)NC1CCCc2ccccc21 (centres undefined) |  | inconclusive: 7.08 µM [inhibitor, partial curve, poor fit]
CCOc1ccc(CCNC(=O)c2oc(=O)c3ccccc3c2-c2ccc(C)cc2)cc1OCC |  | inconclusive: 5.62 µM [activator, partial curve, poor fit]
O=C(CN1CCOCC1)N/N=C/c1c(O)ccc2ccccc12 |  | active: 11.2 µM
CC(C)C[C@H](NC(=O)NCc1ccc(F)cc1)C(=O)O | inactive: -2.63% | 
O=C(Cc1ccc(F)cc1)Nc1ccc(S(=O)(=O)N2CCCC2)cc1 |  | inconclusive: 8.91 µM [inhibitor, partial curve, poor fit]

Structure (SMILES) | activity change, negative = inhibition | Potency
CCC(=O)NC(=S)Nc1cccc(NC(=O)CC)c1 |  | inconclusive: 15.8 µM [activator, partial curve, poor fit]
O=C(NC1CCCCC1)c1ccc(OC2CCN(Cc3ccccn3)CC2)cc1 | inactive: 25.3% | 
Cc1nn(C)cc1CN(C)C(=O)c1cc(-c2ccccc2)nc2ccc(Br)cc12 |  | inconclusive: 35.5 µM [inhibitor, single point] and inconclusive: 17.8 µM [inhibitor, partial curve, poor fit]
CCOC(=O)c1ccc2c(c1)nc(C)n2CC |  | inconclusive: 35.5 µM [inhibitor, single point]
CC(C)CN1C(=O)NC(NC(=O)c2ccco2)(C(F)(F)F)C1=O (centres undefined) |  | inconclusive: 0.0891 µM [activator, full curve, poor fit]
CC1(c2ccc(Cl)cc2)NC(=O)CS1 (centres undefined) | inactive: -19.4% | 
Cc1ccc(-c2ccc(CN3C(C)C(=O)N(Cc4cn(CCC5OCCCO5)nn4)CCS3(=O)=O)cc2)cc1 (centres undefined) |  | inconclusive: 35.3 µM [inhibitor, single point]
CC1CCCC(NC(=O)Cn2c(Cl)nc3c2c(=O)n(C)c(=O)n3C)C1C (centres undefined) |  | inconclusive: 5.62 µM [inhibitor, single point]
O=C(Cn1c(=O)oc2cccnc21)Nc1ccccc1Oc1ccc(Cl)cc1Cl | inactive: -25.9% [at 46.1 µM] | 
COC(=O)c1cc(CNC(=O)Cc2ccsc2)ccc1OC |  | inconclusive: 35.5 µM [inhibitor, partial curve, poor fit]
CCOC(=O)/C(C#N)=C/c1cc(C)n(-c2ccc(C)cc2)c1C |  | inconclusive: 31.6 µM [inhibitor, single point]
Cc1ccccc1CSc1cn(CC(=O)N2CCCCC2)c2ccccc12 |  | inconclusive: 35.5 µM [inhibitor, single point]
N#Cc1ccc(OCC(O)CS(=O)(=O)c2ccccc2)cc1 (centres undefined) |  | inconclusive: 11.2 µM [inhibitor, partial curve]
CC1Cc2ccccc2N1C(=O)CSc1nc2ccc(NC(=O)COc3ccccc3)cc2s1 (centres undefined) |  | inconclusive: 35.5 µM [inhibitor, single point]
S=c1nc[nH]c2c1ncn2C1CCCO1 (centres undefined) |  | inconclusive: 35.5 µM [inhibitor, single point]
CCN(CC)C(C(=O)Nc1ccc(C(C)C)cc1)c1ccc2c(c1)OCO2 (centres undefined) |  | inconclusive: 29.1 µM [inhibitor, partial curve, poor fit]
N#C/C(=C\c1ccc(OCc2ccc(Cl)cc2)cc1)C(=O)Nc1cccc(C(=O)O)c1 |  | inconclusive: 20.6 µM [inhibitor, partial curve, poor fit]
COC(=O)c1ccc(CN2C(=O)NC3(CCCCC3)C2=O)cc1 |  | inconclusive: 5.01 µM [activator, partial curve]
CCCc1nc2nc(C)c(NS(=O)(=O)c3ccc(CC(C)C)cc3)c(=O)n2[nH]1 |  | inactive
Cn1ccnc1SCc1nc2c(cnn2-c2ccccc2)c(=O)[nH]1 | inactive: -8.44% | 
COCC(C)NC(=O)Cn1c(SCc2ccccc2)nc2ccccc21 (centres undefined) |  | inconclusive: 6.31 µM [inhibitor, partial curve, poor fit]
O=C(NC1CCCCC1)N1CCN(C(c2ccccc2)c2ccccc2)CC1 |  | active: 13 µM
